According to ChEMBL document CHEMBL4316593 (Eur J Med Chem, 2019):
This continues a long series; more values of the same kind are listed elsewhere.

How the values were obtained:
[1] = Inhibition of RTK/PI3K/AKT/mTOR signaling in human U87 cells assessed as up regulation of family with sequence similarity 35 member A gene expression at cytotoxic IC50 measured after 48 hrs relative to control; type: cell-based; settings: U-87MG ATCC
[2] = Inhibition of RTK/PI3K/AKT/mTOR signaling in human U87 cells assessed as up regulation of TESMIN gene expression at cytotoxic IC50 measured after 48 hrs relative to control; type: cell-based; settings: U-87MG ATCC

CC(=O)C(=NNc1ccccc1C#N)C(C)=O
log2FC [1]: 1.15 | log2FC [2]: 2.06
